Some entries repeat one wording, which the source may state once for all of them. Where no end group is shown, it is not given here. The star is where a group is joined. Biotin = O=C1N[C@H]2[C@H](CS[C@H]2CCCCC(=O)*)N1
Experiments:
Assay in all cases: Cell and nuclear entry (immunofluorescence, fractionation/Western blot)
Assay type in all cases: cell-based
[1] = tested on: MDA-MB-231 cells; conditions: MDA-MB-231, 10 μM, 1 hr
[2] = tested on: MCF10A cells; conditions: 10 μM, 1 hr
[3] = tested on: BT549 cells; conditions: BT549, 10 μM, 1 hr

Substance | Entry into cells and nucleus [1] | Entry into cells and nucleus [2] | Entry into cells and nucleus [3]
Biotin-RLQLMARLAEGTGLQIPPAAQQALQMSGSLAFGAVAEFSFVIDLQ (N-terminus assumed) [CAPER peptide HCC1.4] | effectively enter the cells and travel to the nucleus | effectively enter the cells and travel to the nucleus | effectively enter the cells and travel to the nucleus
VGDALQGLRLFSTQASIGAQMEQLAAQPLRAGQMLQLAQASPLRT [CAPER scrambled peptide, scrambled control peptide, reference compound] | effectively enter the cells and travel to the nucleus | effectively enter the cells and travel to the nucleus | effectively enter the cells and travel to the nucleus
Biotin-RLQLMARLAEGTGLQIPPAAQQALQMSGSLAFGAVADLQTRLSQQ (N-terminus assumed) [CAPER peptide HCC1.3] | effectively enter the cells and travel to the nucleus | effectively enter the cells and travel to the nucleus | effectively enter the cells and travel to the nucleus
